Results deposited as PubChem BioAssay AID1259308 (NCATS, 2017).
The deposit covers about 59,000 reagents; shown is a random part of them. About 1,510 of all reagents (2.6%) count as active. 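Calls use total luciferase alone and ignore viability, so some active siRNAs may act by altering cell number.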 Unmarked entries are inactive. Reagents against one gene are numbered here. Further read-outs or replicates are left out here.

Purpose: 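Genes whose loss raises luciferase production in HEK293 cells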 (primary screen)
System: human HEK293 embryonic kidney cells stably expressing firefly luciferase (HEK-CMV-Luc2-Hygro)
Knock-down reagent: single siRNA against human genes, 0.8 pmol siRNA per well
Timing: 72 h
Detection: 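Luciferase light (ONE-Glo) measured on one replicate plate set and viability (CellTiter-Glo) on the other, scaled to a negative control siRNA, with robust z-scores and luciferase per cell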
Direction: total luciferase, z-score: higher = more reporter protein produced
Active means: 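An siRNA counts as active if its total luciferase robust z-score exceeds 3; genes with two or more such siRNAs out of three were retested with fresh siRNAs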
Meaning of the calls: active = raised luciferase; inactive = no rise

total luciferase, z-score, by gene symbol and reagent
MTAP (GeneID 4507): #1 0.857; #2 0.594; #3 0.764
SLC35E2A (GeneID 9906): #1 -0.124; #2 2.72; #3 -0.415
FAM149A (GeneID 25854): #1 0.967; #2 -1.25; #3 1.71
MYH10 (GeneID 4628): #1 0.554; #2 -0.436; #3 0.864
GUSBP14 (GeneID 11039): #1 -1.51; #2 0.857; #3 -1.27
MRPL40 (GeneID 64976): #1 -1.02; #2 -1.84; #3 0.747
SNAP23 (GeneID 8773): #1 -0.45; #2 1.28; #3 -1.76
NIPBL (GeneID 25836): #1 -0.101; #2 0.413; #3 -0.111
PHGDH (GeneID 26227): #1 0.757; #2 -0.29; #3 -0.216
TMEM95 (GeneID 339168): #1 0.21; #2 -0.313; #3 -0.0903
ATP6V0E1 (GeneID 8992): #1 0.323; #2 0.0717; #3 0.152
AP3M2 (GeneID 10947): #1 -0.321; #2 -0.555; #3 6.11 (active)
ZNF772 (GeneID 400720): #1 3.23 (active); #2 1.61; #3 0.909
